One experiment has as its target EP300 BRD (Homo sapiens (Human), UniProt Q09472). The experiment in a line: EP300 AlphaScreen bromodomain (BRD) binding test. Particulars: read-out: EP300 BRD IC50.
The next experiment has as its target CBP BRD (Homo sapiens (Human), UniProt Q92793). As to the kind of experiment: CBP AlphaScreen bromodomain (BRD) binding test. The note with it: read-out: CBP BRD IC50.

Sequences of proteins named here, by UniProt entry; tags and fusion partners are left off. Residues count along the entry.
UniProt Q09472, 1049-1156 limits assumed: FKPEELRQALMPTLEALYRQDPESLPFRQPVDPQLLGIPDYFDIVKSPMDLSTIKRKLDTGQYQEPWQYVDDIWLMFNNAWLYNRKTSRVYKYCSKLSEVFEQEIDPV
UniProt Q92793, 1085-1192 limits assumed: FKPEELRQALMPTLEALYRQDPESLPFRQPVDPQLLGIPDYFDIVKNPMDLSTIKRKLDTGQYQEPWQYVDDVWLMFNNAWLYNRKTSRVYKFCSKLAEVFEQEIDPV

Not every entry of the source has a single result; some have several. Only these are listed. The source may hold further records. Values that stand side by side differ for a reason that is not stated; dose, time, organism, isomer or construct need not be as stated for each record.

Turning to `[2H]C([2H])([2H])O[C@H]1CC[C@H](n2c([C@@H]3CCOC(=O)N3c3ccc(F)c(F)c3)nc3cc(-c4c(C)noc4C)ccc32)CC1`, the half-inhibitory concentration (IC50) on EP300 BRD is ≤ 3 nM and 0.8 nM; on CBP BRD, ≤ 5 nM and 1.2 nM.

For the origin of these results see patent US12497392B2, “EP300/CBP inhibitor” (HINOVA PHARMACEUTICALS INC., priority 2019, dated 2025).
